# Measured values reported in PubChem BioAssay AID624305 (National Center for Advancing Translational Sciences (NCATS), 2012).
# The shares of active, inactive and inconclusive entries below differ from those in the screen. Potencies beside an inconclusive call are fits to weak or partial responses and may not hold up. Calls of active or inactive are those of the source. Calls come from the whole dose curve; as a rule, active = well fitted activation curve with a large enough effect; inconclusive = small, poorly fitted or top-dose-only effect; inactive = no such curve, though single readings can be large or run the other way.
# Experiment: qHTS assay for re-activators of p53 using a Luc reporter: Hit Validation; note: nearly all actives have a fitted effect of over 75% in size; for activation: 0% is about no effect
# Settings: p53-responsive luciferase reporter cells, luminescence, H1299 line expressing heat-sensitive Ala138Val p53; series mostly up to 46.1 µM; activation: at the top concentration
# Procedure, shortened: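 Hit confirmation with a 1:5 dilution series, at 37 deg C for 24 hrs, in H1299 cells co-expressing temperature-sensitive p53-A138V and p53-responsive luciferase. Nocodazole served as control; luminescence read after 10 min with detection reagent.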
# Potency is the fitted concentration of half-maximal effect.
SMILES,Potency,activation
CCOc1cccc(-c2c(C(=O)N/N=C(\C)c3ccccn3)nnn2-c2nonc2N)c1,"inconclusive: 9.2 µM [activator, partial curve, poor fit]",–
CC(C)(C)CC(=O)O/N=C(\N)c1ccccn1,"inconclusive: 0.58 µM [activator, partial curve, poor fit]",–
CN(CC(=O)Nc1ccc(Cl)c(Cl)c1)C(=O)C1CCCC1,–,inactive: -22.4%
C#CCOc1ccc(/C=C2\SC(=S)N(Cc3cccnc3)C2=O)cc1,"inconclusive: 29.1 µM [activator, single point]",–
COc1cc(N=c2c([N+](=O)[O-])nn(-c3ccc4c(c3)OCCO4)n2O)cc(OC)c1,"inconclusive: 2.31 µM [activator, partial curve, poor fit]",–
Cc1cc(C)cc(NC(=O)c2sc3nc(C)cc(C)c3c2N)c1,active: 11.6 µM,–
Cc1ccc(-c2nc(-c3cccnc3)no2)c(C)c1,active: 4.61 µM,–
O=C(Nc1ccc(Cl)cc1Cl)c1ccc2c(c1)OCCO2,"inconclusive: 0.206 µM [activator, full curve, poor fit]",–
Cc1ccc(OCC(=O)c2cc(C)n(C)c2C)c([N+](=O)[O-])n1,"inconclusive: 0.184 µM [activator, partial curve, poor fit]",–
O=C(CNc1ccccc1)N/N=C/c1c[nH]c2ccccc12,–,inactive: 25.5%
CCOC(=O)c1csc(Nc2nc3ccc(F)cc3s2)n1,"inconclusive: 46.1 µM [activator, single point]",–
O=c1[nH]c2ccc(N/C(=N/S(=O)(=O)c3ccccc3)c3ccccc3)cc2[nH]1,–,inactive: 30.2%

# A second format for two compounds above:
SMILES	Potency	activation
CC(C)(C)CC(=O)O/N=C(\N)c1ccccn1	inconclusive: 0.58 µM [activator, partial curve, poor fit]	–
CN(CC(=O)Nc1ccc(Cl)c(Cl)c1)C(=O)C1CCCC1	–	inactive: -22.4%
